# Measurements published in article PMC5996148.
# Sequences of proteins named here, by UniProt entry; tags and fusion partners are left off. A change or cut given only in a name is not applied to a line headed by its entry.
# UniProt P38646: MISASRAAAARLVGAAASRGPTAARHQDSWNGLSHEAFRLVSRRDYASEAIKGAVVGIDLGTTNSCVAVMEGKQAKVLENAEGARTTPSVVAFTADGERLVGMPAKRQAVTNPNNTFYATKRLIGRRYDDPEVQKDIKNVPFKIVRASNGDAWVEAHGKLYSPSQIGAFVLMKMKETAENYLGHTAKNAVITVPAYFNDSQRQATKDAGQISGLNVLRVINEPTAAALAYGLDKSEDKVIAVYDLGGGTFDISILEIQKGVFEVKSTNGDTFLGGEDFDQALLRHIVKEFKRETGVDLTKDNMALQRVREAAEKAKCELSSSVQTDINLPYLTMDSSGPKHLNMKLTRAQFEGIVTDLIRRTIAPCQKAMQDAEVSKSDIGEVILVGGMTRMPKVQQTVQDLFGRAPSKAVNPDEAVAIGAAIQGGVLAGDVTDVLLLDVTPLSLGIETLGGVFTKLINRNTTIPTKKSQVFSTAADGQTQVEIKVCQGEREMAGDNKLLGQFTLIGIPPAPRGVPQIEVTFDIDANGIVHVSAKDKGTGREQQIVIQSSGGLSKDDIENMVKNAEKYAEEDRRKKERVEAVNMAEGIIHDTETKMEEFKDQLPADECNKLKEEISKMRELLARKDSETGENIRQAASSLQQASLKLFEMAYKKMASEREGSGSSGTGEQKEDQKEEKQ
# UniProt Q9BUP3: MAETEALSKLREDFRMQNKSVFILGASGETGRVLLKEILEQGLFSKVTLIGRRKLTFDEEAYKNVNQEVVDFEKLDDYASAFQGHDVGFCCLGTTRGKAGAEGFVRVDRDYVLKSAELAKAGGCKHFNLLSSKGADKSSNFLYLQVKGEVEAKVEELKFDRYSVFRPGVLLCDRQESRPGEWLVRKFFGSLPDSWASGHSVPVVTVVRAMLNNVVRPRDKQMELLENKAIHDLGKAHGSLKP
# The list shows a part of the results. For some of these results: The exact form of the protein is not confirmed.
# What was measured:
# Test in all cases: protein microarray (ProtoArray v5.0), streptavidin-Alexa Fluor 647
# Conditions in all cases: 3'-biotin; 20 mM Tris (pH 7.5), 5 mM MgCl2, 100 mM KCl, 0.1% Tween-20, A/T-rich and random oligonucleotide blockers; temperature not stated; high values mean tight binding
# [1] = molecular target: HSPA9 (UniProt P38646)
# [2] = system: HSPBP1 (human)
# [3] = system: HSPC111 (human)
# [4] = system: HSPC142 (human)
# [5] = molecular target: HTATIP2 (UniProt Q9BUP3)
# [6] = system: HYPK (human)
# [7] = system: Hematopoietic lineage cell-specific protein (human)
# [8] = system: Hemoglobin subunit mu (human)
# [9] = system: Hexaprenyldihydroxybenzoate methyltransferase, mitochondrial (human)
# [10] = system: Hexokinase-3 (human)
sequence,measurement,setting,value
GGGGACAGGGGTATGGGGAGGGG [G4-3 biotinylated (CtG)],binding signal,[1],-0.325 z-score
same,binding signal,[2],-0.339 z-score
same,binding signal,[3],9.11 z-score
same,binding signal,[4],-0.335 z-score
same,binding signal,[5],-0.318 z-score
same,binding signal,[6],-0.333 z-score
same,binding signal,[7],-0.315 z-score
same,binding signal,[8],-0.341 z-score
same,binding signal,[9],-0.342 z-score
same,binding signal,[10],-0.328 z-score

# No new results follow: entries from further up.
sequence,measurement,setting,value
GGGGACAGGGGTATGGGGAGGGG [G4-3 biotinylated (CtG)],binding signal,[8],-0.341 z-score
same,binding signal,[9],-0.342 z-score
